In this assay the test system is BDF1 mice, P1081 chloroleukemia ip, survival T/C. Nature of the assay: NCI In Vivo Anticancer Drug Screen. Data for tumor model P1081 Chloroleukemia (intraperitoneal) in B6D2F1 (BDF1) mice. Conditions: T/C endpoint: mean survival time, vehicle: saline, higher T/C = longer survival. The protocol: The antitumor activity of compounds was measured in mice bearing transplantable tumors. Survival or tumor size were measured and the results are expressed as the measurement made in the treated group (T) divided by the measurement made in the vehicle treated control group (C). The tumor model used in this assay is P1081 Chloroleukemia (intraperitoneal) in B6D2F1 (BDF1) mice

The list is a part of this screen's results and no random one: its compounds were picked by chemical class. Other doses and runs of a compound may be missing. T/C gives the treated animals as a percentage of the vehicle group. For survival time, this PubChem deposit counts one and a half times the control or more as active, and values a quarter to a half above the control carry no call in these data; other NCI protocols may use other cut-offs. Some T/C values are marked as having no survivor count here; that says nothing about deaths at the dose. Schedules are NCI's codes, taken here to give the interval after Q, in days (D) or hours (H), and the number of doses after X. Some doses were run more than once; the values are given in rising order. Some schedule codes hold Z or #, which are not explained here.

This passage reports T/C results from PubChem BioAssay AID246 (DTP/NCI, 2004).

On to `CN(CCCl)CCCl`, for which the T/C (dose: 0.13 mg/kg/injection, schedule: Q01DX010 (ip)) is 100 [survivor count not shown] and 145 % of control [survivor count not shown]; the T/C (dose: 0.25 mg/kg/injection, schedule: Q01DX010 (ip)) was 95 [survivor count not shown] and 115 % of control [survivor count not shown]; the T/C (dose: 0.5 mg/kg/injection, schedule: Q01DX010 (ip)) was 90 % of control [survivor count not shown]; the T/C (dose: 15.7 micrograms/kg/injection, schedule: Q01DX Z (ip)) was 148 % of control [survivor count not shown]; the T/C (dose: 31.2 micrograms/kg/injection, schedule: Q01DX Z (ip)) is 98 % of control [survivor count not shown]; the T/C (dose: 31.5 micrograms/kg/injection, schedule: Q01DX Z (ip)) was 151 % of control [survivor count not shown]. In addition, the T/C (dose: 63.0 micrograms/kg/injection, schedule: Q01DX Z (ip)) was 158 % of control [survivor count not shown].
